These are yes or no findings as the source states them, for the method shown. In cells and extracts the contact can be indirect. Some entries that bind do so weakly or less than the wild type.

The chains behind the UniProt entries cited, without tags or fusion partners. Where a name states a change or a piece, a line headed by the entry shows the natural chain unless it says otherwise. A line that says so, or that is headed by a name, gives the form on record, which may keep a tag or linker.
Full-length NTAP–GSK3β (P49841, form named): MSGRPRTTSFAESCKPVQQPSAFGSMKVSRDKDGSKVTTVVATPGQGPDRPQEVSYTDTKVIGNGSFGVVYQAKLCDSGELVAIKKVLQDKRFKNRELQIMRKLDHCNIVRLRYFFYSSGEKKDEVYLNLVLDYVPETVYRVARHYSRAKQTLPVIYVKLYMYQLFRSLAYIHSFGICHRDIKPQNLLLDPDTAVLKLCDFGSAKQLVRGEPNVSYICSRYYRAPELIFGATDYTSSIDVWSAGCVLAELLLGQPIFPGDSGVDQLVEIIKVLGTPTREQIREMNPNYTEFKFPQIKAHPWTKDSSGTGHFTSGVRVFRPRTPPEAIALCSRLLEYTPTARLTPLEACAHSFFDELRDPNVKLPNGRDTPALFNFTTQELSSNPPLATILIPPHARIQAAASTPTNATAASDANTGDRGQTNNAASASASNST

We go through one substance from PMC5874249.

The target of this test is Full-length NTAP–GSK3β (UniProt P49841). Description: pull-down; NTAP–GSK3β constructs co-transfected with Flag–LSD1 constructs in 293 cells, precipitated with streptavidin beads/resin, Western blot with anti-Flag, anti-STIP1, anti-HSP90 and anti-CBP; lysis buffer 20 mM Tris-Cl pH 7.4, 25 mM NaCl, 0.1% NP-40. On the technique in general: Immunoblotting shows a protein as a band on a membrane.

As for “endogenous STIP1 (from UniProt P31948 1-543)”, the binding result was “binds”.
